PubChem BioAssay AID1259308, NCATS – 2017
Aim: 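Genes whose loss raises luciferase production in HEK293 cells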 (primary screen). Cell system: human HEK293 embryonic kidney cells stably expressing firefly luciferase (HEK-CMV-Luc2-Hygro). Reagent: single siRNA against human genes, 0.8 pmol siRNA per well. Timing: 72 h. Measurement: 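Reporter luminescence and viable-cell signal on separate replicate plates, given as percent of non-targeting control and median/MAD z-scores, plus per-cell luciferase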. Reading the numbers: total luciferase, z-score and total luciferase, % of control: higher = more reporter protein produced. Call rule: 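An siRNA counts as active if its total luciferase robust z-score exceeds 3; genes with two or more such siRNAs out of three were retested with fresh siRNAs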. Calls: active = raised luciferase; inactive = no rise.
The deposit covers about 59,000 reagents; below is an unselected part. About 1,510 of them (2.6%) were called active. 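Calls use total luciferase alone and ignore viability, so some active siRNAs may act by altering cell number.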 Reagents against one gene are numbered here. Further read-outs or replicates are left out here.

| target gene | reagent | total luciferase, z-score | total luciferase, % of control | Call |
| --- | --- | --- | --- | --- |
| CYC1 (GeneID 1537) | 1 | -2.09 | 40.3 | inactive |
| CYC1 (GeneID 1537) | 2 | -2.35 | 35.1 | inactive |
| CYC1 (GeneID 1537) | 3 | -0.416 | 73.6 | inactive |
| SLC5A6 (GeneID 8884) | 1 | 0.0986 | 83.8 | inactive |
| SLC5A6 (GeneID 8884) | 2 | -0.976 | 62.5 | inactive |
| SLC5A6 (GeneID 8884) | 3 | -1.33 | 55.4 | inactive |
| KIFAP3 (GeneID 22920) | 1 | -0.26 | 76.7 | inactive |
| KIFAP3 (GeneID 22920) | 2 | -0.762 | 66.7 | inactive |
| KIFAP3 (GeneID 22920) | 3 | -1.11 | 59.9 | inactive |
| ABHD14A (GeneID 25864) | 1 | 4.84 | 178 | active |
| ABHD14A (GeneID 25864) | 2 | -0.0968 | 80 | inactive |
| ABHD14A (GeneID 25864) | 3 | -0.631 | 69.3 | inactive |
| BARD1 (GeneID 580) | 1 | 3.09 | 143 | active |
| BARD1 (GeneID 580) | 2 | 0.746 | 96.7 | inactive |
| BARD1 (GeneID 580) | 3 | -0.879 | 64.4 | inactive |
| CSRNP1 (GeneID 64651) | 1 | -1.95 | 43.1 | inactive |
| CSRNP1 (GeneID 64651) | 2 | -0.691 | 68.1 | inactive |
| CSRNP1 (GeneID 64651) | 3 | -0.468 | 72.6 | inactive |
| ODAPH (GeneID 152816) | 1 | -0.358 | 74.8 | inactive |
| ODAPH (GeneID 152816) | 2 | 0.121 | 84.3 | inactive |
| ODAPH (GeneID 152816) | 3 | 1.09 | 104 | inactive |
| HMGCR (GeneID 3156) | 1 | -1.28 | 56.3 | inactive |
| HMGCR (GeneID 3156) | 2 | -0.321 | 75.5 | inactive |
| HMGCR (GeneID 3156) | 3 | 0.0501 | 82.9 | inactive |
| SYNJ2 (GeneID 8871) | 1 | -2.35 | 35.1 | inactive |
| SYNJ2 (GeneID 8871) | 2 | -0.811 | 65.8 | inactive |
| SYNJ2 (GeneID 8871) | 3 | -0.129 | 79.3 | inactive |
| FKBP1A (GeneID 2280) | 1 | 0.0562 | 83 | inactive |
| FKBP1A (GeneID 2280) | 2 | -0.936 | 63.3 | inactive |
| FKBP1A (GeneID 2280) | 3 | -0.145 | 79 | inactive |
| MEIS3 (GeneID 56917) | 1 | 1.05 | 103 | inactive |
| MEIS3 (GeneID 56917) | 2 | -0.322 | 75.5 | inactive |
| MEIS3 (GeneID 56917) | 3 | 3.78 | 157 | active |

Reagents listed above with an active call (3):
| target gene | reagent | total luciferase, z-score | total luciferase, % of control | Call |
| --- | --- | --- | --- | --- |
| ABHD14A (GeneID 25864) | 1 | 4.84 | 178 | active |
| BARD1 (GeneID 580) | 1 | 3.09 | 143 | active |
| MEIS3 (GeneID 56917) | 3 | 3.78 | 157 | active |

More results follow.
| target gene | reagent | total luciferase, z-score | total luciferase, % of control | Call |
| --- | --- | --- | --- | --- |
| ICAM3 (GeneID 3385) | 1 | 0.677 | 95.4 | inactive |
| ICAM3 (GeneID 3385) | 2 | 0.5 | 91.8 | inactive |
| ICAM3 (GeneID 3385) | 3 | 1.23 | 106 | inactive |
| OLIG3 (GeneID 167826) | 1 | -0.747 | 67 | inactive |
| OLIG3 (GeneID 167826) | 2 | 0.115 | 84.2 | inactive |
| OLIG3 (GeneID 167826) | 3 | 0.799 | 97.8 | inactive |
| SLX4IP (GeneID 128710) | 1 | -2.08 | 40.5 | inactive |
| SLX4IP (GeneID 128710) | 2 | 0.582 | 93.5 | inactive |
| SLX4IP (GeneID 128710) | 3 | 0.00449 | 82 | inactive |
| MRPS30 (GeneID 10884) | 1 | 0.107 | 84 | inactive |
| MRPS30 (GeneID 10884) | 2 | 0.457 | 91 | inactive |
| MRPS30 (GeneID 10884) | 3 | 0.0531 | 82.9 | inactive |
| WFDC21P (GeneID 645638) | 1 | 2.51 | 132 | inactive |
| WFDC21P (GeneID 645638) | 2 | 0.031 | 82.5 | inactive |
| WFDC21P (GeneID 645638) | 3 | -0.293 | 76.1 | inactive |
| GK5 (GeneID 256356) | 1 | -0.625 | 69.5 | inactive |
| GK5 (GeneID 256356) | 2 | 0.346 | 88.8 | inactive |
| GK5 (GeneID 256356) | 3 | -0.0623 | 80.6 | inactive |
| HNF4G (GeneID 3174) | 1 | -1.6 | 50.1 | inactive |
| HNF4G (GeneID 3174) | 2 | -2.54 | 31.5 | inactive |
| HNF4G (GeneID 3174) | 3 | 0.288 | 87.6 | inactive |
| TMEM59 (GeneID 9528) | 1 | -1.38 | 54.5 | inactive |
| TMEM59 (GeneID 9528) | 2 | -0.525 | 71.4 | inactive |
| TMEM59 (GeneID 9528) | 3 | 0.977 | 101 | inactive |
| PLGRKT (GeneID 55848) | 1 | 0.817 | 98.1 | inactive |
| PLGRKT (GeneID 55848) | 2 | -0.0678 | 80.5 | inactive |
| PLGRKT (GeneID 55848) | 3 | -1.14 | 59.1 | inactive |
| EPAS1 (GeneID 2034) | 1 | -0.166 | 78.6 | inactive |
| EPAS1 (GeneID 2034) | 2 | -1.45 | 53 | inactive |
| EPAS1 (GeneID 2034) | 3 | -0.297 | 76 | inactive |
| AMOTL1 (GeneID 154810) | 1 | 0.646 | 94.7 | inactive |
| AMOTL1 (GeneID 154810) | 2 | -0.435 | 73.2 | inactive |
| AMOTL1 (GeneID 154810) | 3 | 0.11 | 84.1 | inactive |
| PIAS3 (GeneID 10401) | 1 | 0.0557 | 83 | inactive |
| PIAS3 (GeneID 10401) | 2 | 1.33 | 108 | inactive |
| PIAS3 (GeneID 10401) | 3 | 0.615 | 94.1 | inactive |
| HPRT1 (GeneID 3251) | 1 | 0.575 | 93.3 | inactive |
| HPRT1 (GeneID 3251) | 2 | 0.133 | 84.5 | inactive |
| HPRT1 (GeneID 3251) | 3 | -0.323 | 75.5 | inactive |
| ADAM23 (GeneID 8745) | 1 | -0.862 | 64.7 | inactive |
| ADAM23 (GeneID 8745) | 2 | 1.69 | 115 | inactive |
| ADAM23 (GeneID 8745) | 3 | -0.493 | 72.1 | inactive |
